Publication PMC3979679

What was measured:
[1] = target: T1, FLAG-tagged Mind bomb 2 (Mib2) (zebrafish) (UniProt A0AR23); test: co-IP; COS7 cells co-transfected with FLAG-tagged Mib/Mib2 and Myc- or HA-tagged partner; lysate in IONIC buffer (50 mM Tris HCl pH 7.4, 150 mM NaCl, 1% Triton X-100); anti-FLAG M2 affinity gel 2 h at 4°C; blot with anti-Myc or anti-HA
T1 sequence: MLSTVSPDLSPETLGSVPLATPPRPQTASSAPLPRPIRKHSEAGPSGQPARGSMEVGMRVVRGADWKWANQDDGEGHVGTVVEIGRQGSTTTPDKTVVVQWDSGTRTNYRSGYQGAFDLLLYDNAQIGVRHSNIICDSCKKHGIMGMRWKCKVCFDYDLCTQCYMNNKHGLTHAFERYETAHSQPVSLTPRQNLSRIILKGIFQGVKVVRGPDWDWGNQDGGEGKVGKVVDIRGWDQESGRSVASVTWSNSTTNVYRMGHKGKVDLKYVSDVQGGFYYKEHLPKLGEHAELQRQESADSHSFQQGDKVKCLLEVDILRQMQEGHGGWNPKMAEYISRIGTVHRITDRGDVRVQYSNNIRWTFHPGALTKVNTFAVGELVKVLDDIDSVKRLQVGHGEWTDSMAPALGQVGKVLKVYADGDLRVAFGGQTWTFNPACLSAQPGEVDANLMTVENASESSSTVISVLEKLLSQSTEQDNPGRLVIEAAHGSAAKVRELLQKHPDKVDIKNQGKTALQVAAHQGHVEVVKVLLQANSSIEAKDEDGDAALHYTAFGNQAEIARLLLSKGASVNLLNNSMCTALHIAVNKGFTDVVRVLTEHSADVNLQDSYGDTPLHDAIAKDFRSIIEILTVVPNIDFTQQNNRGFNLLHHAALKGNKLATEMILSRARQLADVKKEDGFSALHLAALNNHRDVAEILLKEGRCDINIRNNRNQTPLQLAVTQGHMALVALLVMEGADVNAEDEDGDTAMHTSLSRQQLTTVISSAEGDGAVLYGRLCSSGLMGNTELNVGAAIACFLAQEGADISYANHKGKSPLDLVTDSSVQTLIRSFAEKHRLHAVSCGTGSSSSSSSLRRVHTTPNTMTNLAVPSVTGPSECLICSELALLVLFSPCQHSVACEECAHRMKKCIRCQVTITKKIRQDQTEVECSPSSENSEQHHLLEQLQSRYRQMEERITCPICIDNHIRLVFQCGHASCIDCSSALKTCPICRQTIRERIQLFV

[2] = target: T2, Mib2-C-RF12 (781-999 aa) (zebrafish) (UniProt A0AR23); test: two-hybrid; first screen (Hybrigenics): LexA DNA-binding domain-bait and Gal4 activation domain-prey, HIS3 reporter, in the nucleus; random-primed Danio rerio embryo (18-20 hpf) cDNA library
T2 sequence: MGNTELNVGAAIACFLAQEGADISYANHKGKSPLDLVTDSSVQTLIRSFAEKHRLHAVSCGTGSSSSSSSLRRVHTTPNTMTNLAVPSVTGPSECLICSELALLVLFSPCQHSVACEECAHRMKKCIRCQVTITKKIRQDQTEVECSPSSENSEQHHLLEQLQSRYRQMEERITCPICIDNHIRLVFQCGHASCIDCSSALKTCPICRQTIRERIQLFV

Substance | binding [1] | binding [2]
Usp9 (full length), HA-tagged (from UniProt A0ACM8Q8A5) | binds | –
ubiquitin specific protease 9 (usp9), prey 1980-2363 aa (from UniProt A0ACM8Q8A5) (domain or fragment) | – | binds

No constants are given. Whether binding was seen depends on the method and setting. A result given as binding can be weak or reduced; the word gives no strength. For some assays here: Binding seen in cells or lysates may run through a third protein. For some assays here: Where a sequence is shown, tags or fusion partners need not be part of it.
